Measured values as given in publication PMC11559003.
For part of these data: Construct, isoform or probe ends are uncertain for at least one entry.

By UniProt entry, the sequences of proteins in these tests, tags left out. Where a name states a change or a piece, a line headed by the entry shows the natural chain unless it says otherwise.
UniProt P0ACJ8: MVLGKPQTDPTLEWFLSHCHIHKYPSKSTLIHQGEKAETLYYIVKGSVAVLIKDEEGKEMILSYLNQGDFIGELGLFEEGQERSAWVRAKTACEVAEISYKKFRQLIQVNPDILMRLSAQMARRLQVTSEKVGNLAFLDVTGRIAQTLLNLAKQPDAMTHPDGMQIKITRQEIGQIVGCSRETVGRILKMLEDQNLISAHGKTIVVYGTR

Key:
[1] = biological target: CRP (cAMP receptor protein) (Escherichia coli) (UniProt P0ACJ8); experiment: BLI; settings: BLI: 10 mM HEPES, 2 mM MgCl2, 0.1 mM EDTA, 200 mM KCl, pH 8.0, running buffer + 10 ug/mL BSA, 0.02% Tween-20, temperature not stated, recombinant protein, residues 1-210, protein details: His-tag (pProEX), label: 5' biotin, probe letters rebuilt from the primers and the genome
[2] = biological target: CRP (cAMP receptor protein) (Escherichia coli) (UniProt P0ACJ8); experiment: EMSA; settings: 200 uM cAMP; EMSA: 10 nM probe, 1x Beyotime EMSA/Gel-Shift Binding Buffer, 25 C 30 min, 6% PAGE at 4 C in 0.5x TBE + 200 uM cAMP; recombinant protein; residues 1-210; protein details: His-tag (pProEX); label: 5' biotin; probe letters rebuilt from the primers and the genome

AGCCAGTGGCGATAAGTTCCGGCGCTGGTGGAAAAAGGCCAGCAGAATGCGCGTCTTAATGGCTTACAGAATGTGACGTTTTATCACGAAAATCTTGAAGAAGATGTCACAAAGCAGCCGTGGGCGAAAAACGGCTTCGATAAAGTGTTGCTGGACCCGGCGCGAGCAGGTGCCGCAGGTGTTATGCAGCAAATTATAAAACTGGAACCTATTCGTATAGTTTATGTATCCTGTAACCCTGCAACGCTGGCTCGGGATAGCGAAGCGTTATTAAAAGCAGGATATACCATTGCGCGACTGGCGATGCTGGATATGTCTTATCGCCACTGGCT (double strand) [relA promoter probe]
Kd ([1]; cAMP + (p)ppGpp): 110 µM
Kd ([1]; cAMP, no (p)ppGpp): 13 µM
binding result [2]: binds
